According to US20160015828A1 (AbbVie / Abbott, published 2016):
Substitutions are numbered along the chain they refer to. No constants are given. Whether binding was seen depends on the method and setting. Some results given as binding are weak or reduced against the parent protein; the word gives no strength.

Amino acid sequences for entries named in this document (tags omitted). Residues count along the entry.
UniProt O88516, residues 33-592: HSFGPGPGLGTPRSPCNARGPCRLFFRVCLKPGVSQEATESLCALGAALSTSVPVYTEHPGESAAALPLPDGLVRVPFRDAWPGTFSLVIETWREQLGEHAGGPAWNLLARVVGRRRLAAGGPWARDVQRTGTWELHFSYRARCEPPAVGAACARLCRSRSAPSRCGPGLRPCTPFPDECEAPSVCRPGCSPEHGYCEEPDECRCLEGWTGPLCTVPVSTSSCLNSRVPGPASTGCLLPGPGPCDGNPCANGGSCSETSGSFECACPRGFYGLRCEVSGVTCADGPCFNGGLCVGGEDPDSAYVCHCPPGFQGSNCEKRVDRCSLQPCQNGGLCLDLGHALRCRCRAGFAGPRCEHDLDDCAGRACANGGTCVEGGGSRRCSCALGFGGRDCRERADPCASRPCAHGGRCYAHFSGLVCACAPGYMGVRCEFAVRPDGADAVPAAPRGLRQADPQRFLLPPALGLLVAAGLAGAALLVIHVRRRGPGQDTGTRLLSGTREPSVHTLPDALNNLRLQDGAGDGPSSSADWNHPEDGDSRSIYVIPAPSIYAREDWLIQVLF

T1: human DLL3 (UniProt Q9NYJ7 27-492)
T1 chain: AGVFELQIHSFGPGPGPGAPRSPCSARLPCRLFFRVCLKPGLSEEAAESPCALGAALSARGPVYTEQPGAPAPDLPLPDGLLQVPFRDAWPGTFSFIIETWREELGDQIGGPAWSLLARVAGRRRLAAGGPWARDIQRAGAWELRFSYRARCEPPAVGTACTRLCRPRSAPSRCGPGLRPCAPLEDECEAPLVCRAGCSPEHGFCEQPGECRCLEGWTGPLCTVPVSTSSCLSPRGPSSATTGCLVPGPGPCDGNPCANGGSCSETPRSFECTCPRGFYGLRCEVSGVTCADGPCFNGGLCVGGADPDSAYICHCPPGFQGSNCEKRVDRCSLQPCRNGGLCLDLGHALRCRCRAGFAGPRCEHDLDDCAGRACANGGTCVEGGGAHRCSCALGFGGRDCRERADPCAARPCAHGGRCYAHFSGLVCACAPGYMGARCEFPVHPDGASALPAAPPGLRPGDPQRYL

B1: hSC16.13 (antibody, human IgG1, kappa, V domains shown)
VH: QITLKESGPTLVKPTQTLTLTCTFSGFSLSTSGMGVGWIRQPPGKALEWLAHIWWDDVKRYSPSLKSRLTITKDTSKNQVVLTMTNMDPVDTATYYCARIVSFDNDVVSAMDYWGQGTLVTVSS
VL: DIQMTQSPSSLSASVGDRVTITCSASSSVSYMYWYQQKPGKAPKLLIYLTSNLASGVPSRFSGSGSGTDFTLTISSLQPEDFATYYCQQWRSNPFTFGQGTKLEIKR
B2: hSC16.15 (antibody, human IgG1, kappa, V domains shown)
VH: QVQLVQSGAEVKKPGASVKVSCKASGYTFTRYWIHWIRQAPGQGLEWMGYINPTTVYTEFNQNFKDRVTMTRDTSTSTVYMELSSLRSEDTAVYYCARGGSNFFDYWGQGTTVTVSS
VL: AIQLTQSPSSLSASVGDRVTITCRASENIYYNLAWYQQKPGKAPKLLIYTANSLEDGVPSRFSGSGSGTDFTLTISSLQPEDFATYFCKQAYDVPPTFGGGTKLEIKR
B3: hSC16.34 (antibody, human IgG1, kappa, V domains shown)
VH: QVQLVQSGAEVKKPGASVKVSCKASGYTFTNYGMNWVRQAPGQRLEWMGWINTYTGDPTYADDFKGRVTITRDTSASTAYMELSSLRSEDTAVYYCARIGGNSPSDYWGQGTTVTVSS
VL: DIQMTQSPSSLSASVGDRVTITCKASQSVSNDVAWYQQKPGKVPKLLIYYASNRYSGVPSRFSGSGSGTDFTLTISSLQPEDVATYFCQQDYSSPWTFGGGTKVEIKR
B4: hSC16.56 (antibody, human IgG1, kappa, V domains shown)
VH: B3 VH with R44G, D57E, I70M, R72T, A76T, S84R, E89D, G101D, N102S, T113L
VL: EIVMTQSPATLSVSPGERATLSCKASQSVSNDVVWYQQKPGQAPRLLIYYASNRYTGIPARFSGSGSGTEFTLTISSLQSEDFAVYYCQQDYTSPWTFGQGTKLEIKR
B5: chimeric SC16.25 (antibody, human IgG1, kappa, V domains shown)
VH: QVTLKESGPGILQPSQTLSLTCSFSGFSLSTSGMGVGWIRQPSGEGLEWLTDIWWDDNKYYNPSLKSRLTISKDTSSNQVFLNITSVDTADTATYYCARRVNYYYDPYYAMDYWGQGTSVTVSS
VL: QIVLTQSPAIMSASPGEKVTMTCSASSSVSYMHWYQQKSGTSPKRWIYDSSKLASGVPARFSGSGSGTSYSLTISSMEAEDAATYYCQQWSSNPLTFGAGTKLELKR
B6: chimeric SC16.34 (antibody, human IgG1, kappa, V domains shown)
VH: QIQLVQSGPELKRPGETVKISCKASGYTFTNYGMNWVKQAPGKGLKWMGWINTYTGDPTYADDFKGRFAFSLETSASTAYLQINNLKNEDTATYFCARIGGNSPSDYWGQGTSLTVSS
VL: SIVMTQTPKFLLVSAGDRVTITCKASQSVSNDVAWYQQKPGQSPKLLIYYASNRYSGVPDRFTGSGYGTDFTFTISTVQAEDLAVYFCQQDYSSPWTFGGGTKLEIKR
B7: chimeric SC16.56 (antibody, human IgG1, kappa, V domains shown)
VH: B6 VH with R13K, G49A, D57E, Y80S, N84I, G101D, N102S, S113T
VL: B6 VL with A34V, S56T, T63A, T72S, S93T, K107R
B8: hSC16.25 (antibody, human IgG1, kappa, V domains shown)
VH: QITLKESGPTLVKPTQTLTLTCTFSGFSLSTSGMGVGWIRQPPGKALEWLTDIWWDDNKYYNPSLKSRLTITKDTSKNQVVLTMTNMDPVDTATYYCARRVNYYYDPYYAMDYWGQGTLVTVSS
VL: EIVLTQSPDFQSVTPKEKVTITCSASSSVSYMHWYQQKPDQSPKLLIKDSSKLASGVPSRFSGSGSGTDFTLTINSLEAEDAATYYCQQWSSNPLTFGQGTKLEIKR
B9: SC16.4 (antibody, V domains shown)
VH: QIQLVQSGPELKKPGETVKISCKASGYTFTDYSMHWVKQAPGKGLKWMGWINTETGEPGYADDFKGRFAFSLETSASTAYLQINNLKNEDTATYFCARYDGYAMDYWGQGTSVTVSS
VL: DIQMTQTTSSLSASLGDRVTISCRASQDISNYLNWYQQKPDGTVKLLIYYTSRLHSGVPSRFSGSGSGTDYSLTISNLELEDIATYFCQQGDMLPWTFGGGTKLEIK
notes: murine mAb; V regions only
B10: SC16.8 (antibody, V domains shown)
VH: QAQLQQSGAELVRPGTSVKVSCKASGYAFTNYLIEWVKQRPGQGLEWIGVINPGTGGTNYNENFKGKATLTADKSSSTAYMQLSSLTSDDSAVYFCARSPYDYHEGAMDYWGQGTSVTVSS
VL: EIQMTQSPSSMSASLGDRITITCQATQDIVKNLNWYQQKPGKPPSFLIYYAIELAEGVPSRFSGSGSGSDYSLTISNLESEDFADYYCLQFYEFPFTFGAGTKLELK
notes: murine mAb; V regions only
B11: SC16.15 (antibody, V domains shown)
VH: QVQLQQSGAELAKPGASVKMSCKASGYTFTRYWIHWIKQRPGQGLEWIGYINPTTVYTEFNQNFKDKATLTADKSSTTASMQLSSLTSEDSAVYYCARGGSNFFDYWGQGTTLTVSS
VL: DIQMTQSPASLAASVGETVAITCRASENIYYNLAWYQQKQGKSPQLLIYTANSLEDGVPSRFSGSGSGTQYSLKINSMQPEDSATYFCKQAYDVPPTFGGGTKLEIK
notes: murine mAb; V regions only
B12: SC16.34 (antibody, V domains shown)
VH: B6 VH
VL: SIVMTQTPKFLLVSAGDRVTITCKASQSVSNDVAWYQQKPGQSPKLLIYYASNRYSGVPDRFTGSGYGTDFTFTISTVQAEDLAVYFCQQDYSSPWTFGGGTKLEIK
notes: murine mAb; V regions only
B13: SC16.56 (antibody, V domains shown)
VH: B6 VH with R13K, G49A, D57E, Y80S, N84I, G101D, N102S, S113T
VL: B12 VL with A34V, S56T, T63A, T72S, S93T, K107R
notes: murine mAb; V regions only
B14: SC16.136 (antibody, V domains shown)
VH: EVQLQQSGPELVKPGASVKMSCKASGYTFTSYVMHWVKQKPGQGLEWIGYINPYNDGTKYNEKFKGKATLTSDKSSSTAYMELSSLTSEDSAVYYCARDRSGYEDYYGMDYWGQGTSVTVSS
VL: DIQMTQSPASLSASVGETVTITCRASGNIHNYLAWYQQKQGKSPHLLVYNAKTLADGVPSRFSGSGSGTQYSLKINSLQPEDFGSYYCQHFWSTPWTFGGGTKLEIK
B15: SC16.142 (antibody, V domains shown)
VH: EVQLQQSGPELVKPGASVKISCKASGYTFTDYNMHWVKQSHGKSLEWIGFFYPYNGNTVYSQKFKSKATLTVDNSSSTAYMELRSLTSEDSAVYYCARLNWEGYWGQGTTLTVSS
VL: DIKMTQSPSSMYASLGERVTITCKASQDINNYLSWFQQKPGKSPKTLIYRANRLVDGVPSRFSGSGSGQDYSLTISSLEYEDMGIYYCLQYDEFPYTFGGGTKLEIK
B16: SC16.22 (antibody, V domains shown)
VH: QVQLQQPGAELVKPGASVKLSCKASGYTFTTYWMHWVKQRPGQGLEWIGEIDPSDSYTYYNQKFKGKATLTVDKSSSTAYMQLSSLTSEDSAVYYCARGDYGNPYAMDYWGQGSSVTVSS
VL: B9 VL with S30K, L46P, L54V, L80Q, D92Y, M93T, W96F, G100S
B17: SC16.31 (antibody, V domains shown)
VH: EVQLQQSGPELVKPGASVKISCKASGYSFSRFYMHWVKQSPENSLEWIGEINPSTGGTSYNQKFKGKATLTVDKSSSTAYMQLKSLTSEESAVYYCTRGYGSNWYFDVWGAGTTVTVST
VL: DIVLTQSPLSLPVNIGDQASISCKSTKSLLNSDGFTYLDWYLQRPGQSPQFLIYLVSNRFSGVPDRFSGSGSGTDFTLKISRVEAEDLGVYYCFQSNYLPLTFGAGTKLELR
B18: SC16.103 (antibody, V domains shown)
VH: QVTLKESGPGILKPSQTLSLTCSFSGFSLSTSGMGIGWIRQPSGKGLEWLAHIWWDDDKYYNPSLKSQLTISKDSSRNQVFLKITSVDTADTATYYCARRGTAYYFDYWGQGTTLTVSS
VL: DIVLTQSPASLAVSLGQRATISCRASKSVSTSGYSYMHWYQQKPGQPPKLLIYLASNLESGVPARFSGSGSGTDFTLNIHPVEEEDAATYYCQHSRELPLTFGAGTKLELK
B19: SC16.105 (antibody, V domains shown)
VH: QVQLQQPGAELVKPGASVKLSCKASGYTFTSYWMHWVKQRPGQGLEWIGVINPSNGRTNYNEKFKSKATLTVDKSSSTAYMQLSSLTSEDSAVYYCARRRELGTLYAMDYWGQGTSVTVSS
VL: DIVMTQSHKFMSTSVGDRVSITCKASQDVGTAVAWYQQKPGQSPKLLIYWASIRHTGVPDRFTGSGSGTDFTLTISNVQSEDLADYFCQQYSSYPLTFGAGTKLELK

target: DLL3 (UniProt Q9NYJ7); experiment: SPR (Biacore 2000)

| Binder | binding |
| --- | --- |
| B1 | binds |
| B2 | binds |
| B3 | binds |
| B4 | binds |
| B5 | binds |
| B6 | binds |
| B7 | binds |

Target: T1, human DLL3
Experiment: SPR (Biacore 2000)

| Binder | binding |
| --- | --- |
| B8 | binds |

target: DLL3 (UniProt Q9NYJ7); experiment: screening on immobilized DLL3 or 293-hDLL3 cells

| Binder | binding |
| --- | --- |
| B9 | binds |
| B10 | binds |
| B11 | binds |
| B12 | binds |
| B13 | binds |

Target: T1, human DLL3
Experiment: screening on immobilized DLL3 or 293-hDLL3 cells

| Binder | binding |
| --- | --- |
| B14 | binds |
| B15 | binds |
| B16 | binds |
| B17 | binds |
| B18 | binds |
| B19 | binds |

target: murine DLL3 over-expressed on 293 cells (murine) (UniProt O88516); experiment: flow cytometry, 293 cells over-expressing murine DLL3

| Binder | binding |
| --- | --- |
| B9 | binds |
| B10 | binds |
| B11 | binds |
| B12 | binds |
| B13 | binds |
